Data as given in patent publication US9067857B2, “Fluorine-containing aromatic compound and manufacturing method therefor” (Asahi Glass Company, Limited, priority 2012, dated 2015).

Experiment: Semiconductor material and mobility evaluation (top-contact bottom-gate FET element)
Conditions: vacuum-deposited 70 nm film, FET evaluated under vacuum

FC(F)(F)C(F)(F)C(F)(F)C(F)(F)C(F)(F)C(F)(F)c1c2ccccc2c(C(F)(F)C(F)(F)C(F)(F)C(F)(F)C(F)(F)C(F)(F)F)c2ccccc12 [Compound (e), 9,10-bis(perfluorohexyl)anthracene]
Transistor conduction type of FET element: n-type transistor element
Carrier mobility (field effect mobility) (saturated region of current-voltage properties): 9.1×10^−5 cm^2/V·s
